We go through two substances from paper PMC10203710.

Protein sequences, listed by entry. Tags and fused reporters are not part of them.
UniProt Q96RY7: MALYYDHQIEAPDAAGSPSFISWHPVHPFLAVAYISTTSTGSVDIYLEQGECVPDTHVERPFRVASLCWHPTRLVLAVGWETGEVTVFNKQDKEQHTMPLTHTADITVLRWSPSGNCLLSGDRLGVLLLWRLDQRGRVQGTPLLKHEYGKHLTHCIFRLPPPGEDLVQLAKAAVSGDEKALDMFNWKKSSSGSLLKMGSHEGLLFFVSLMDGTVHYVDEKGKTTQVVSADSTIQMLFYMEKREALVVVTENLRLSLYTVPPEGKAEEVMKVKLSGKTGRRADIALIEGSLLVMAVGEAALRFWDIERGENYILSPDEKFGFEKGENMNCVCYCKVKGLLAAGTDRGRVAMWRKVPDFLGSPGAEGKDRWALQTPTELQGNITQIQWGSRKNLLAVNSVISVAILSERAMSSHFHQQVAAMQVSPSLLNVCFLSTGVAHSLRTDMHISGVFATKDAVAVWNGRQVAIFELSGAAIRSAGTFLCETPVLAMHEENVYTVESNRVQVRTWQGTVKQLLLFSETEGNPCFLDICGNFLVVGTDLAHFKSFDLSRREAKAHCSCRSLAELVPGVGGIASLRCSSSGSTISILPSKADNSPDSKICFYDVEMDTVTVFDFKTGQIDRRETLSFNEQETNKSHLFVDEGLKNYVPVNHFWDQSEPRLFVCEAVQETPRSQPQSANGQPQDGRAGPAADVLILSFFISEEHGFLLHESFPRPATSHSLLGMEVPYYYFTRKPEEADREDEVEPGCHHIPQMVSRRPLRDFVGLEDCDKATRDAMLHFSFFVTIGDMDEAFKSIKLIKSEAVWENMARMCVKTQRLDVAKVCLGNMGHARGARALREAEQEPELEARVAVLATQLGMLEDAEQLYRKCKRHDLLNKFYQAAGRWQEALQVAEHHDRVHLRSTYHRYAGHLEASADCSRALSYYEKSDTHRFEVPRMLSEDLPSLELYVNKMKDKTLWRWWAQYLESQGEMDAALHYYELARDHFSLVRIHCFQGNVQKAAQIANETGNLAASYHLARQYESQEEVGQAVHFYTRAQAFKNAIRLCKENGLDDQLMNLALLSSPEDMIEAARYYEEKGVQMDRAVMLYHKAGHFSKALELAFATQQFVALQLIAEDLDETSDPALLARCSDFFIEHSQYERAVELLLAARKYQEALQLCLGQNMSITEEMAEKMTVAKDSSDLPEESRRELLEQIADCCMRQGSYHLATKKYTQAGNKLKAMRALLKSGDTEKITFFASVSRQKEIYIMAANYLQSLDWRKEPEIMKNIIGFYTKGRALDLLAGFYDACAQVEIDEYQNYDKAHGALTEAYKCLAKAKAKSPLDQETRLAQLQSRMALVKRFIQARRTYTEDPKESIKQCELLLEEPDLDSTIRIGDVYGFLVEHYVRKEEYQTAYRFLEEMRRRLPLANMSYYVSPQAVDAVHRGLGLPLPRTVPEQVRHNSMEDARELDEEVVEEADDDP
UniProt Q96EX3: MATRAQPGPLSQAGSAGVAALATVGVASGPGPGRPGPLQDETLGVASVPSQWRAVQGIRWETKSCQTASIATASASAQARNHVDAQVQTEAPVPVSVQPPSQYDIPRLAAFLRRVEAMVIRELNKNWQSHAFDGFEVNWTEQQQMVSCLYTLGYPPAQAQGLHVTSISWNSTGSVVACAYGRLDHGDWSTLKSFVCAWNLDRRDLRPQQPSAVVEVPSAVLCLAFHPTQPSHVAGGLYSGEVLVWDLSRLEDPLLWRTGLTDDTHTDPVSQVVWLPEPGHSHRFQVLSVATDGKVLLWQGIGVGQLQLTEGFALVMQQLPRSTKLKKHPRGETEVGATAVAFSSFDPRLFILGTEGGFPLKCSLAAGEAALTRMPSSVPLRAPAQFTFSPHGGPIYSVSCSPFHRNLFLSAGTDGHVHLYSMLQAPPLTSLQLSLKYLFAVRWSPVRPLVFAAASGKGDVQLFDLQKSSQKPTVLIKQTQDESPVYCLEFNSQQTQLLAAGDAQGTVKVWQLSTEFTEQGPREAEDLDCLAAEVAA
UniProt Q8WVS4: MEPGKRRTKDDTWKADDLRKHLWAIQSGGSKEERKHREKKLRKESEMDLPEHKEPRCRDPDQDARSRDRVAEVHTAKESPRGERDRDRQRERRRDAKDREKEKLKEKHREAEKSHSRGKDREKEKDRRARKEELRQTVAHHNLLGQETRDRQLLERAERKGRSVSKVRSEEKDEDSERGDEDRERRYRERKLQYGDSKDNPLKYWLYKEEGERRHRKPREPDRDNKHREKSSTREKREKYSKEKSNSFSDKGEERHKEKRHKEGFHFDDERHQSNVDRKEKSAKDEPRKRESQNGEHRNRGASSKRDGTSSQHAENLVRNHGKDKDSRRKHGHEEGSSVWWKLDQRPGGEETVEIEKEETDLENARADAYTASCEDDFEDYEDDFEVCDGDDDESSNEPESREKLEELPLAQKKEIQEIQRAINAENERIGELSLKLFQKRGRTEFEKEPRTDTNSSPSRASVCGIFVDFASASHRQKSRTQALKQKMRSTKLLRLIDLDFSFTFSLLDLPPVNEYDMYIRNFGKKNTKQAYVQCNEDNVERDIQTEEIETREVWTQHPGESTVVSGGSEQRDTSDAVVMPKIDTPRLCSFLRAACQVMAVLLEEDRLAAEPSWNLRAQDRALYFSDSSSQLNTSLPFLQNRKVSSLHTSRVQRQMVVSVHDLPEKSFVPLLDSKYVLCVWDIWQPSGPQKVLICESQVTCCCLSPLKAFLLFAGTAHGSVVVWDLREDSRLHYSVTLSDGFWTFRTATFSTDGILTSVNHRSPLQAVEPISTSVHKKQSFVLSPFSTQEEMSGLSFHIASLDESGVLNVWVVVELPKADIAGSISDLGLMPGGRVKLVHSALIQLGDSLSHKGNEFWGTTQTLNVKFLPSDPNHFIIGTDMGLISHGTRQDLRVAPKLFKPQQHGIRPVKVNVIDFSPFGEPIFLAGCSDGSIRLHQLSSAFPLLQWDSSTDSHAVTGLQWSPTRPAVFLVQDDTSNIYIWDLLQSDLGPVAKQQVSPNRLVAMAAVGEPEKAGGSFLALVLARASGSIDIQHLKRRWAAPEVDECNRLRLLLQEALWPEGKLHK

No constants are given. Whether binding was seen depends on the method and setting. Binding seen in cells or lysates may run through a third protein. Some results given as binding are weak or reduced against the parent protein; the word gives no strength.

Test [1] has as its target IFT140 (human (endogenous in HEK-293T)) (UniProt Q96RY7). The test is described as follows: co-IP; HEK-293T cells transfected with Flag-human WDR60 or Flag-human WDR34; lysate in 1% Triton X-100 buffer (20 mM Tris pH 7.5, 150 mM NaCl); IP with anti-IFT88 or anti-IFT140 antibody at 4°C overnight, Protein A + G agarose beads, washed in cold PBS; WDR60 or WDR34 detected by western blot. (In general: In western blotting, separated proteins are transferred to a membrane and probed.)

Test [2] has as its target T1, IFT88 (human (endogenous in HEK-293T)) (UniProt Q13099).
T1 sequence: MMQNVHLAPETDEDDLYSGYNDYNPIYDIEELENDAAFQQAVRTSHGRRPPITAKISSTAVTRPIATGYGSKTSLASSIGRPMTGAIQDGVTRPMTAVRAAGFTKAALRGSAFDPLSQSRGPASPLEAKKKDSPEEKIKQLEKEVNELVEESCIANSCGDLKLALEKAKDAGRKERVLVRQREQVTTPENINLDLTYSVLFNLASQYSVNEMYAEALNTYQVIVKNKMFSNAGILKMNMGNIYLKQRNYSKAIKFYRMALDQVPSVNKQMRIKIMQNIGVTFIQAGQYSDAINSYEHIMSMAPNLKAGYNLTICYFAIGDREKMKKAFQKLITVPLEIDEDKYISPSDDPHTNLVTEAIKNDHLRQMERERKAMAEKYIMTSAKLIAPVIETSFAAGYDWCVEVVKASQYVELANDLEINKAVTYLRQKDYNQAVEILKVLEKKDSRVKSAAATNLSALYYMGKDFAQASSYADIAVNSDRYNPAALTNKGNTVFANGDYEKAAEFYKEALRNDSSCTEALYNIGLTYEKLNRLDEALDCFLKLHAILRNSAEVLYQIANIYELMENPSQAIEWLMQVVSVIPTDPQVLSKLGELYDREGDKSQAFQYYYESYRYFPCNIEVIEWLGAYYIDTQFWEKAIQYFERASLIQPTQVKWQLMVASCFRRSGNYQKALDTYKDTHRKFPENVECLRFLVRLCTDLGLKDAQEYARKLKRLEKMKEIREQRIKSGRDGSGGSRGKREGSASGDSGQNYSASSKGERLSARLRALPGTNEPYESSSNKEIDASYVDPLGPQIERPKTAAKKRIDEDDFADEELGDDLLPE
The description is as above.

For “Flag-human WDR34 (WD repeat domain 34) (from UniProt Q96EX3 1-536)”, the binding result in test [1] and in test [2] was “binds” each time. Take “Flag-human WDR60 (WD repeat domain 60) (from UniProt Q8WVS4 1-1066)”: the binding result in test [2] was “binds”.
